# Laboratory results: PubChem BioAssay AID2685 (National Center for Advancing Translational Sciences (NCATS), 2010)
# Hit rate of the full screen: of about 320,000 compounds, about 2,100 (0.66%) were called active. Inconclusive results, whose numbers are uncertain, are shown with a selection of clear calls. Calls come from the whole dose curve; as a rule, active = well fitted inhibition curve with a large enough effect in the signal ratio, with a control signal flat (not every such curve was filed as active); inconclusive = small, poorly fitted or top-dose-only effect, or effect the other way, or a change in a side signal; inactive = flat fitted curve, though single readings scatter; the % refers to the signal ratio. A potency beside an inconclusive call is a rough fit, not a confirmed value.
# Assay: qHTS Assay for Lipid Storage Modulators in Drosophila S3 Cells
# Details: BODIPY lipid droplet fluorescence, 18-24 h, cells fed with added oleic acid; lipid storage change, negative = inhibition: at 46.1 µM (top of the series) unless noted
# Procedure, shortened: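 Drosophila S3 cells got compounds at several concentrations plus oleic acid (400 uM solution). Laser-scanning cytometry with 488 nm excitation read lipid droplets at 500-530 nm and cells at 575-640 nm. Percent activity was relative to 20 uM Triacsin C.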
# % is set by controls: 0 for no effect and ±100 for the full control effect; potency is the fitted concentration of half-maximal effect.
SMILES,"lipid storage change, negative = inhibition",Potency,outcome
CC1(C)CC(=O)C(C=NC2CC(C)(C)NC(C)(C)C2)=C(O)C1,inconclusive: -1.62%,,
Cc1ccc(N2C(=O)N3[C@H](c4ccc(Br)cc4)[C@@H]4C(=O)N(C(C)(C)C)C(=O)[C@@H]4[C@]3(C)C2=O)cc1,inconclusive: 48.9%,,
Cc1ccccc1CN1C(=O)CS/C1=N/N=C/c1ccco1,inconclusive: 1.63%,,
O=C(NC1CCCCC1)c1ccc(CS(=O)(=O)c2ccc(Cl)cc2)o1,inconclusive: 18.2%,,
CCc1nc(OCc2ccco2)c2sc3nc4c(cc3c2n1)COC(C)(C)C4,,"inconclusive: 29.1 µM [activator, single point]",
Cc1cc(F)ccc1S(=O)(=O)N1CCCOC1CNC(=O)C(=O)NCc1ccccn1 (configuration not stated),inconclusive: 35.8%,,
O=C(COC(=O)c1cnccn1)N=c1sccn1Cc1ccccc1Cl,,"inconclusive: 10.3 µM [activator, single point]",
COc1ccccc1CCNC(=O)/C(=C/c1cccnc1)NC(=O)c1ccccc1,inconclusive: 16.9%,,
CC1(c2ccccc2)NC(=O)N(CC(=O)NNC(=O)c2ccccc2)C1=O (configuration not stated),,"inconclusive: 16.4 µM [activator, partial curve, poor fit]",
Cc1ccc(COC(=O)c2nn(C)c(=O)c3ccccc23)cc1,inconclusive: -2.1%,,
c1ccc(CNc2ncnc3c2cnn3-c2ccccc2)cc1,,"inconclusive: 29.1 µM [activator, single point]",
Cc1ccc(C2c3[nH]c4ccccc4c3C[C@H]3C(=O)N(c4ccccc4C(=O)NCCCN4CCOCC4)C(=O)N23)cc1 (some centres not stated),inconclusive: 1.45%,,
COC(=O)CC1=NC(=O)CS1,inconclusive: 0.19%,,
CC(=O)CSc1nc2ccc(Nc3nc(N4CCOCC4)nc(N4CCOCC4)n3)cc2s1,inconclusive: 47.5%,,
Cc1cc(C)c(S(=O)(=O)/N=C2\C=C(NS(=O)(=O)c3ccccc3)C(=O)c3ccccc32)c(C)c1,,"inconclusive: 2.91 µM [activator, single point]",
O=C(CSc1cccc2cccnc12)Nc1ccccc1F,,"inconclusive: 25.9 µM [falling, single point]",
Cc1cccc(OCC(O)Cn2c(=N)n(Cc3ccccc3)c3ccccc32)c1 (configuration not stated),,"inconclusive: 29.1 µM [cytotoxic, single point]",
CC(=O)c1ccc(S(=O)(=O)N2CCN(C(=O)c3ccc(-n4nc(C)c(Cl)c4C)cc3)CC2)cc1,,"inconclusive: 29.1 µM [falling, single point]",
CC(NC(=O)c1cccc(S(=O)(=O)N2CCN(Cc3ccccc3)CC2)c1)c1ccc(Br)cc1 (configuration not stated),inconclusive: -38.8%,,
CC1CCCCC1NC(=O)c1cc(=O)[nH]c2ccccc12 (configuration not stated),inconclusive,,
Cn1c(NC(=O)/C=C/c2c(F)cccc2Cl)cc(=O)n(C)c1=O,inactive: -6.34%,,
Cc1cccc(OCc2nnc(N)s2)c1C,inconclusive: 24.5%,,
Cc1ccc(S(=O)(=O)N(C)C)cc1NS(=O)(=O)c1ccc(Cl)s1,,active: 6.51 µM,
N#C/C(=C1/C(=O)Nc2ccc(Br)cc21)c1ccccn1,,"inconclusive: 4.61 µM [activator, single point]",

SMILES,"lipid storage change, negative = inhibition",Potency,outcome
COc1ccc(C(=S)N2CCOCC2)cc1OC(=O)c1cc(OC)c(OC)c(OC)c1,,"inconclusive: 3.66 µM [activator, full curve]",
COc1cc(-c2csc(CCn3nc(C)cc3C)n2)cc(OC)c1OC,inconclusive: 21.1%,,
Cc1ccc(C(=O)n2nnc3ccccc32)cc1[N+](=O)[O-],inconclusive: 2.46%,,
Cc1ccc(S(=O)(=O)N2CCN(Cc3ccccn3)CC2)cc1,inconclusive: 23.5%,,
COc1ccccc1NS(=O)(=O)c1ccc(C)c(C(=O)NCCCN2CCCC2=O)c1,inconclusive: 42.3% [activator] [at 0.0737 µM],,
Cc1nnc(NC(=O)CN2CCN(Cc3ccc(F)cc3Cl)CC2)s1,inconclusive: 20.5%,,
O=C(Oc1nsnc1N1CCOCC1)N1CCOCC1,inconclusive: -18.8%,,
CCN(C(=O)CN1C(=O)S/C(=C\c2ccc(Cl)cc2)C1=O)C1CCS(=O)(=O)C1 (configuration not stated),,"inconclusive: 0.0366 µM [activator, partial curve, poor fit]",
CC(C)(C)C(=O)C(Oc1cccc2nonc12)n1cncn1 (configuration not stated),inconclusive: 2.07%,,
Cc1cccc(NC(=O)C2CCN(S(=O)(=O)c3cccc4cccnc34)CC2)n1,inconclusive: 14.6% [at 9.22 µM],,
Cc1cc(C)n(-c2ccc(C(=O)N3CCN(S(=O)(=O)c4ccc(C(C)C)cc4)CC3)cc2)n1,inconclusive: 16.1%,,
O=[N+]([O-])c1cc(C(F)(F)F)ccc1Sc1ccccn1,inconclusive: 14.3%,,
COc1ccc(NCc2nnc(SCC(=O)Nc3ccc(OC)cc3OC)o2)cc1,inactive: 8.16%,,
COc1cc(C(=O)Oc2cc(N)n(S(=O)(=O)c3ccccc3)n2)cc(OC)c1OC,inconclusive: -48.1%,,
c1ccc(CN2CCC(N3CCC(N4CCCCCC4)CC3)CC2)cc1,,active: 0.82 µM,
CN(CC(=O)NCC(c1ccccc1)N1CCCC1)S(=O)(=O)c1ccc(Cl)cc1 (configuration not stated),inconclusive: 7.5%,,
Cc1noc(C)c1COc1ccc(C(=O)Nc2nnc(CC(C)C)s2)cc1,,"inconclusive: 5.17 µM [falling, partial curve, poor fit]",
OC(CNC1CCCc2ccccc21)COc1c(Cl)cccc1Cl (configuration not stated),,"inconclusive: 2.06 µM [falling, full curve, poor fit]",
COc1ccc(N/N=C/c2c(C(=O)O)ccc3ccccc23)cc1,,"inconclusive: 32.6 µM [falling, single point]",
CCCN1CCC(=O)N([C@H](CSc2ccccc2)c2ccccc2)CC1,inconclusive: -26.2%,,
Cc1ccc(S(=O)(=O)NCC(=O)NCC(=O)N2CCC(C)CC2)cc1,,,inactive [at 46.1 µM]
CC(=O)c1c(C)[nH]c(C(=O)CSc2nnc(CN3CCCCCC3=O)n2-c2ccccn2)c1C,,"inconclusive: 0.411 µM [activator, partial curve, poor fit]",
CN(Cc1ccccn1)C(=O)c1ccc2nc(Cc3cccc(Cl)c3)oc2c1,,"inconclusive: 20.6 µM [falling, single point]",

# Quoted from the entries so far, two compounds:
SMILES,"lipid storage change, negative = inhibition",Potency,outcome
CC(=O)c1ccc(S(=O)(=O)N2CCN(C(=O)c3ccc(-n4nc(C)c(Cl)c4C)cc3)CC2)cc1,,"inconclusive: 29.1 µM [falling, single point]",
CC(NC(=O)c1cccc(S(=O)(=O)N2CCN(Cc3ccccc3)CC2)c1)c1ccc(Br)cc1 (configuration not stated),inconclusive: -38.8%,,
